Reference: article PMC8242032, “Non-canonical function of DGCR8 in DNA double-strand break repair signaling and tumor radioresistance” (Nature Communications, 2021)
No constants are given. Whether binding was seen depends on the method and setting. Binding seen in cells or lysates may run through a third protein. Some binding calls cover weakened binding; strength is not graded here. For some assays here: Sequences can lack the tags named with a protein.

Chains of the proteins cited; added tags and fusions are not shown.
UniProt Q14676: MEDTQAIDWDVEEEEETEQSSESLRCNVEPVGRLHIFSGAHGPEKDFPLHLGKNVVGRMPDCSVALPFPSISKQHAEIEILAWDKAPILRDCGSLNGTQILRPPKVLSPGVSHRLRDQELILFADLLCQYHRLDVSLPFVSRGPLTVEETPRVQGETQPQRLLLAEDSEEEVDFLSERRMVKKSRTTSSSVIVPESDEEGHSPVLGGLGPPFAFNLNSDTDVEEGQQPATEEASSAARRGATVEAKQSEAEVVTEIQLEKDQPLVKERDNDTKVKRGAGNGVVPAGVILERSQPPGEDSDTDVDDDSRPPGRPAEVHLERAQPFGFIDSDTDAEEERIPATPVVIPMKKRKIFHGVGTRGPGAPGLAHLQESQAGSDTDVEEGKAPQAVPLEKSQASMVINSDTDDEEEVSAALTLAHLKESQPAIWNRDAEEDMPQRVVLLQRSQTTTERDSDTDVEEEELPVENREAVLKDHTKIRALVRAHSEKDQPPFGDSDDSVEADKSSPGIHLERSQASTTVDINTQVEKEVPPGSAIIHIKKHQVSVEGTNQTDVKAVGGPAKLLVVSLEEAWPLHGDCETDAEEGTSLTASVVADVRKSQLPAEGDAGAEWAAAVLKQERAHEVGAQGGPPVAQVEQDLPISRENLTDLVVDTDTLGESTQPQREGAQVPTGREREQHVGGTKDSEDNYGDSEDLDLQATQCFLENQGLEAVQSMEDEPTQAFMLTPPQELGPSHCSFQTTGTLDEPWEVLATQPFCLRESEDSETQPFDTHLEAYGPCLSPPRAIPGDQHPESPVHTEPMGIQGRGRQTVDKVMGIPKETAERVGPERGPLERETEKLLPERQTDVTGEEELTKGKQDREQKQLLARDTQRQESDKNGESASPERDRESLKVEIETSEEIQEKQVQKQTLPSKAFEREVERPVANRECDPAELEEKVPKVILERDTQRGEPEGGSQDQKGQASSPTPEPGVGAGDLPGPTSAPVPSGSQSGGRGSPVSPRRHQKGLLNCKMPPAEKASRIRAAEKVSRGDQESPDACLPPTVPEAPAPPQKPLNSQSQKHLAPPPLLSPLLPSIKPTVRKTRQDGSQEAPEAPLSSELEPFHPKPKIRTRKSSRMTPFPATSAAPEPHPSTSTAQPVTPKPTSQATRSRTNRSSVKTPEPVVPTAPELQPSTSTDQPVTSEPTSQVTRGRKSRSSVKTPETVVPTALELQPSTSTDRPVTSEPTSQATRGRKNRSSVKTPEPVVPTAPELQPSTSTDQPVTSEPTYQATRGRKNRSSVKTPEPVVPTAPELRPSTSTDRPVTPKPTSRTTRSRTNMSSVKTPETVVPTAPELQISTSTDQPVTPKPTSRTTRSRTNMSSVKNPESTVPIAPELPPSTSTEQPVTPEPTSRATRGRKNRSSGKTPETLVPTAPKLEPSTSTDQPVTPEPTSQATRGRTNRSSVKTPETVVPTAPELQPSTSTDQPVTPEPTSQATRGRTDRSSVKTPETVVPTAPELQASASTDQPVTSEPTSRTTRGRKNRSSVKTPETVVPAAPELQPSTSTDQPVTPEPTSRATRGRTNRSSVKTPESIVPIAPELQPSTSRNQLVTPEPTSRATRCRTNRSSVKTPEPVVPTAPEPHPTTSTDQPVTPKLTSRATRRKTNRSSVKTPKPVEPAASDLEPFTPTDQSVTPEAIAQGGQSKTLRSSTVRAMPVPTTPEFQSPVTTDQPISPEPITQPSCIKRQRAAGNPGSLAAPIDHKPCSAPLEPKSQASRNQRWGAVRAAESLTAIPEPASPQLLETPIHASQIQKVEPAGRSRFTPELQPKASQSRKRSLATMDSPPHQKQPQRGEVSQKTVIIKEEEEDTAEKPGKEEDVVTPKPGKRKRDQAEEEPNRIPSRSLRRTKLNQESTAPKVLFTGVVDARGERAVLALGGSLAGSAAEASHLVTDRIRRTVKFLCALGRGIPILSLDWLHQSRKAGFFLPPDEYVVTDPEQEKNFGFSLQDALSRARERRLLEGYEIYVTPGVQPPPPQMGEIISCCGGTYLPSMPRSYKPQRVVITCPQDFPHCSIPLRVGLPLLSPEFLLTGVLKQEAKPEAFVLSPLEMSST

Assays:
[1] = biological target: T1, DGCR8 (endogenous) (human (endogenous in LM2)) (UniProt Q8WYQ5); test: co-IP; chromatin fractions of LM2 cells (IR 8 Gy followed by 1 h), with or without MNase treatment, immunoprecipitated with a DGCR8-specific antibody
T1 sequence: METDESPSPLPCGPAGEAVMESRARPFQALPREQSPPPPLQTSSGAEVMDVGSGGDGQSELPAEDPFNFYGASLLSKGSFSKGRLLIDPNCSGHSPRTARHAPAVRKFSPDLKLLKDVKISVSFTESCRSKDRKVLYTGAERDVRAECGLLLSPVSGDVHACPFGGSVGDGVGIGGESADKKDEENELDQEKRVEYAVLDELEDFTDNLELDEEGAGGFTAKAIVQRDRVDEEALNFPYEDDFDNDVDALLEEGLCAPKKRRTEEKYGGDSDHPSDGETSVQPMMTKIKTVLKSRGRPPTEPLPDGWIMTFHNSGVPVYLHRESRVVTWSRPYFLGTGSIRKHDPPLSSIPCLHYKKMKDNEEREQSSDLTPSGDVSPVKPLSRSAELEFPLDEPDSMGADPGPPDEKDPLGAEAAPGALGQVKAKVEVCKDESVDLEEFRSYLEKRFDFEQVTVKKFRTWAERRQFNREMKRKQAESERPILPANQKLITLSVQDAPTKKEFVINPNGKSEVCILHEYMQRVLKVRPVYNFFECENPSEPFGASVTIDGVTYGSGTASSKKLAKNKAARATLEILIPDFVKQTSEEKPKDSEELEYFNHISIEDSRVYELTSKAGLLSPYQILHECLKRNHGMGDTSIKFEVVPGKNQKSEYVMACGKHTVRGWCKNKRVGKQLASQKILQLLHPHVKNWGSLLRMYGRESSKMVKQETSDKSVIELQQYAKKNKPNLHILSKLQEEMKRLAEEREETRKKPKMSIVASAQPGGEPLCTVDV

[2] = biological target: T2, RNF8 (endogenous) (human (endogenous in LM2)) (UniProt O76064); test: co-IP; endogenous proteins, control LM2 cells, IR 8 Gy followed by 1 h; lysed in CHAPS buffer; immunoprecipitation with an antibody against RNF168 or RNF8
T2 sequence: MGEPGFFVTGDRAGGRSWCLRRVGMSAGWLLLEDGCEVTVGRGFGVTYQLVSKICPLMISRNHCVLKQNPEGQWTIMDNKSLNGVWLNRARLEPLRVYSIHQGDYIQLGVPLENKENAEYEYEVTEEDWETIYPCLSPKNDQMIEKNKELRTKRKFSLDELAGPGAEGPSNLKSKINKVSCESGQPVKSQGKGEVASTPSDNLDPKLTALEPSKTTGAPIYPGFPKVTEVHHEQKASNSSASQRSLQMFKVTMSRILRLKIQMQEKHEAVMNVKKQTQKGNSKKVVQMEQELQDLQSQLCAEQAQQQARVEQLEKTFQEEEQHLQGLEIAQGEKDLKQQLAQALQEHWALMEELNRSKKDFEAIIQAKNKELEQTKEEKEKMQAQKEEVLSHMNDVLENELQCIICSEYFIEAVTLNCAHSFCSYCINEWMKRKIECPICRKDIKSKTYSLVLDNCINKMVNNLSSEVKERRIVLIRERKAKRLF

[3] = biological target: T3, MYC-DGCR8 S677A (phosphodeficient mutant) (human) (UniProt Q8WYQ5); test: co-IP; MYC-tagged DGCR8 (WT, S677A or S677D) overexpressed in LM2 cells, with or without IR (8 Gy followed by 1 h or 8 h); pulldown with anti-MYC agarose beads, 4 °C, 2 h; immunoblotting
T3 sequence: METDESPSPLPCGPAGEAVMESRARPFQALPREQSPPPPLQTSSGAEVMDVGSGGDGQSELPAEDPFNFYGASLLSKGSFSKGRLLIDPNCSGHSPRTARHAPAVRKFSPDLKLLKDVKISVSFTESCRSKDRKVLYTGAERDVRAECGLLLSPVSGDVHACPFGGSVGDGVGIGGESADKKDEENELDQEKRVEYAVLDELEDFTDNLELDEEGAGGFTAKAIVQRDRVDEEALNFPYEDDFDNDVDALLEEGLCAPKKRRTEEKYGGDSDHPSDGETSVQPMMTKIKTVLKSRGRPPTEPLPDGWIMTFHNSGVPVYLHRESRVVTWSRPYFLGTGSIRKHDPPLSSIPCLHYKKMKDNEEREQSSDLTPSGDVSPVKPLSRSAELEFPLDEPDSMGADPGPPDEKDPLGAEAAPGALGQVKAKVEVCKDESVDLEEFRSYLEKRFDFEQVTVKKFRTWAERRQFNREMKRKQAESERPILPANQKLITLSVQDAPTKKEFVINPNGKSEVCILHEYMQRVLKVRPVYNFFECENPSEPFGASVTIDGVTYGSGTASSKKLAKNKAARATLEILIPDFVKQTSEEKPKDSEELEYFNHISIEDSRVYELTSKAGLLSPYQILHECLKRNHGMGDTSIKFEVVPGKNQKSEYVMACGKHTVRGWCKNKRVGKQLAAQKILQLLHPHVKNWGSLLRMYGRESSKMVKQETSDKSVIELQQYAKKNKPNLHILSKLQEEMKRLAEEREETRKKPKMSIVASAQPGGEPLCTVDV

[4] = biological target: T4, MYC-DGCR8 S677D (phosphomimetic mutant) (human) (UniProt Q8WYQ5); test: as above
T4 sequence: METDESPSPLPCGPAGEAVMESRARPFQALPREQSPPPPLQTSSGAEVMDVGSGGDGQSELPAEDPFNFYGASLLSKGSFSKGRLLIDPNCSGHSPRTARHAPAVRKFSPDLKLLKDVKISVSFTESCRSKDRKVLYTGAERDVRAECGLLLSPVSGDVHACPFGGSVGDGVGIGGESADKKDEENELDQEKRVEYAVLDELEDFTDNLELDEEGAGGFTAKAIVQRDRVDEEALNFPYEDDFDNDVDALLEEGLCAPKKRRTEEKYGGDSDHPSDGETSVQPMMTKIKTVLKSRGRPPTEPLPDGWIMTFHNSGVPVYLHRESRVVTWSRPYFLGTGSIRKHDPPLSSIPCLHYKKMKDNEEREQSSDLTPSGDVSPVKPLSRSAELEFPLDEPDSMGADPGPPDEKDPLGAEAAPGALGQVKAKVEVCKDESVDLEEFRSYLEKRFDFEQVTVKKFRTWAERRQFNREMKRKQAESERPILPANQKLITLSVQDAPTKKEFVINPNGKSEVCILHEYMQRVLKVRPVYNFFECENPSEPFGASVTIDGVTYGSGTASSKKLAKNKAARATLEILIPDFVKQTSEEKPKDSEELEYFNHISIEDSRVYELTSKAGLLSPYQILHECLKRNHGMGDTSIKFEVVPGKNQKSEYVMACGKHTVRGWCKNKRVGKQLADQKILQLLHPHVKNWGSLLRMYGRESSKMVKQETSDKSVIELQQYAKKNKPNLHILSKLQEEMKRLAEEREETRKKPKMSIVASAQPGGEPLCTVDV

[5] = biological target: T5, MYC-DGCR8 (wild-type, full-length) (human) (UniProt Q8WYQ5); test: as above
T5 sequence: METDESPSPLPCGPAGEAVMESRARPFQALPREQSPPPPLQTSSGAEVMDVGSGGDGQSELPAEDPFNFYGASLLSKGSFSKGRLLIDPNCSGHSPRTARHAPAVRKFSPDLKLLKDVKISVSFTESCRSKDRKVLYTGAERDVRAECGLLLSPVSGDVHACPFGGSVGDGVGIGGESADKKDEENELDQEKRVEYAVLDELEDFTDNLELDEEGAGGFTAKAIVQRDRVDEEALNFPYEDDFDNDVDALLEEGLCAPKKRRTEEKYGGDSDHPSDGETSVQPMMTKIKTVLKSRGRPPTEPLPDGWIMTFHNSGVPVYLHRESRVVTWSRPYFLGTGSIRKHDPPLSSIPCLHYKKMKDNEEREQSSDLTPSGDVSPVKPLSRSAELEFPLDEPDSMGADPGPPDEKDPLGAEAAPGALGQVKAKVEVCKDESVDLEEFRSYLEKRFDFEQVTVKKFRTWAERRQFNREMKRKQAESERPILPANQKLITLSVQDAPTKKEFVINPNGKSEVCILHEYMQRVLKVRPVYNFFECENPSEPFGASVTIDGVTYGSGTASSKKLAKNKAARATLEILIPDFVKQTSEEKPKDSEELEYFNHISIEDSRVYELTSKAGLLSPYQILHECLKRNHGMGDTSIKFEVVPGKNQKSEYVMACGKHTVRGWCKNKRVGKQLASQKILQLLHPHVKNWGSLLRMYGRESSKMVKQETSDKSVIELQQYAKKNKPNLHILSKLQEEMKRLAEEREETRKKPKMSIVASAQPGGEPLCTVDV

[6] = biological target: T5, MYC-DGCR8 (wild-type, full-length) (human); test: co-IP; DGCR8 co-IP in HEK293T cells with or without IR (Supplementary Fig. 2c; details not shown)

Row | Molecule | binding [1] | binding [2] | binding [3] | binding [4] | binding [5] | binding [6]
1 | MDC1 (endogenous) (from UniProt Q14676 1-2089) | binds | binds | no binding | binds | binds | binds
2 | RNF8 (endogenous) (enzyme, UniProt O76064 1-485) MGEPGFFVTGDRAGGRSWCLRRVGMSAGWLLLEDGCEVTVGRGFGVTYQLVSKICPLMISRNHCVLKQNPEGQWTIMDNKSLNGVWLNRARLEPLRVYSIHQGDYIQLGVPLENKENAEYEYEVTEEDWETIYPCLSPKNDQMIEKNKELRTKRKFSLDELAGPGAEGPSNLKSKINKVSCESGQPVKSQGKGEVASTPSDNLDPKLTALEPSKTTGAPIYPGFPKVTEVHHEQKASNSSASQRSLQMFKVTMSRILRLKIQMQEKHEAVMNVKKQTQKGNSKKVVQMEQELQDLQSQLCAEQAQQQARVEQLEKTFQEEEQHLQGLEIAQGEKDLKQQLAQALQEHWALMEELNRSKKDFEAIIQAKNKELEQTKEEKEKMQAQKEEVLSHMNDVLENELQCIICSEYFIEAVTLNCAHSFCSYCINEWMKRKIECPICRKDIKSKTYSLVLDNCINKMVNNLSSEVKERRIVLIRERKAKRLF | binds | – | no binding | binds | binds | binds
